## Library screening results

By UniProt entry, the sequences of proteins in these tests, tags left out.
UniProt E9BF75, entry or part of it: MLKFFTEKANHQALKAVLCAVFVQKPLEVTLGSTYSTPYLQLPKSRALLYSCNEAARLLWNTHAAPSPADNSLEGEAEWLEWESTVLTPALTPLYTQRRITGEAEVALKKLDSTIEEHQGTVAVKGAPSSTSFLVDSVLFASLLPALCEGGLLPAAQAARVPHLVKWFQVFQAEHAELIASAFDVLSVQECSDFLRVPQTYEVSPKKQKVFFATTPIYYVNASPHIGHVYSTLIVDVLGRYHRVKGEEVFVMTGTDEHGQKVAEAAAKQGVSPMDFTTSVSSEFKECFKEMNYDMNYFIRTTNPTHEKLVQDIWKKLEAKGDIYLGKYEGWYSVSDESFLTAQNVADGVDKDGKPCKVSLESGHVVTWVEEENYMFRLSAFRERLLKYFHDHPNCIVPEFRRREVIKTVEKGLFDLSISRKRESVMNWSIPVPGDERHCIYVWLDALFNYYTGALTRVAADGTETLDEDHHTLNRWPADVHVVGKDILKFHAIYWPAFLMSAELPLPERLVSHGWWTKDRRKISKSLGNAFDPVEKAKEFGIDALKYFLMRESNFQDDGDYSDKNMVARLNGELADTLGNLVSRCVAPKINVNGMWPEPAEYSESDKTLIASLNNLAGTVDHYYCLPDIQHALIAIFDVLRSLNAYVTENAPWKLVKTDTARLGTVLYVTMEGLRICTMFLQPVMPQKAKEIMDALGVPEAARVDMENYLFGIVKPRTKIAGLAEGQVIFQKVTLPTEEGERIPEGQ

Mtb heat-shock: 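Assay on Mycobacterium tuberculosis, filed only as a heat shock assay from Cornell; the read-out is not stated. The concentration is filed as 10 mM, unlikely as a test dose, so the dose is not known. The record gives no direction; compounds that gave an IC50 in retests scored well above the rest, so higher reads as stronger inhibition. About 69,000 compounds were tested under these conditions; 1.4% (about 930) showed 50% or more at least once.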
LdMetRS: 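Primary screen of methionyl-tRNA synthetase; the read-out is not stated. Target: Methionyl-tRNA synthetase (putative), Leishmania donovani (UniProt E9BF75). The test concentration is not given. The values are filed as inhibition. Size under these conditions: about 68,000 compounds, about 24 of them at 50% or above in at least one test.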
Mtb growth Cornell: 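Whole-cell assay for inhibitors of Mycobacterium tuberculosis growth, labelled Cornell in the record; the read-out is not stated. The concentration is filed as 10 mM, unlikely as a test dose, so the dose is not known. The record gives no direction; compounds strong in two other growth screens of this library score well above the rest, so higher reads as stronger inhibition. About 53,000 compounds were tested under these conditions; 1.7% (about 900) showed 50% or more at least once.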

All values are in %. How 0% and 100% were set is not recorded. Most values in the screen are low, and negative values occur. This is an unselected part of the compounds tested. A dash means the value is not listed here; it may have been measured.

| # | compound | Mtb heat-shock | LdMetRS | Mtb growth Cornell |
|---|---|---|---|---|
| 1 | `CN(C)C(CNC(=O)c1[nH]nc(C2CC2)c1Br)C1CC1` (stereo unspecified) | -16.21 | 13.69 | 13.41 |
| 2 | `CN1CCn2c(-c3cnn(C)c3)cnc2C12CCN(CC1CC1)CC2` | - | 8.711 | - |
| 3 | `[H][C@]12CCC[C@@]1(COCc1ccccn1)CN(Cc1ccccn1)C2` | 10.88 | - | 10.07 |
| 4 | `COc1cccc(NC(=O)C(C)Cn2cc(Cl)cn2)c1` (stereo unspecified) | -6.597 | 12.23 | 52.64 |
| 5 | `Cc1cncnc1C1CCN(C(=O)C2(C)CCCCN2C)CC1` (stereo unspecified) | 11.01 | 12.21 | 44.01 |
| 6 | `Cc1ccccc1CN1CC[C@H](c2nnc(-c3cncn3C)o2)C1` | -19.86 | 8.271 | 7.878 |
| 7 | `CC1(C(=O)N2CCOCC2)CN(Cc2c[nH]cn2)CCO1` (stereo unspecified) | -10.54 | 16.38 | -17.24 |
| 8 | `Cc1cc(NC(=O)CNCc2csc(-c3cnccn3)n2)ccc1Cl` | -1.339 | 10.57 | 27.66 |
| 9 | `O=C(c1cn2cc(Cl)cnc2n1)N1CCOCC(O)(CN2CCCC2)C1` (stereo unspecified) | 6.038 | 6.593 | - |
| 10 | `Cc1noc([C@@H]2CCO[C@@H]3CCN(Cc4cccs4)C[C@@H]32)n1` | - | -0.6667 | - |
| 11 | `CN1C(=O)C(c2ccccc2)CC12CCN(CCOCCO)CC2` (stereo unspecified) | -0.7142 | 7.805 | 3.435 |
| 12 | `COc1cc(N2CCC3(CCCN(C(=O)c4cnccn4)C3)C2)ncn1.O=C(O)C(F)(F)F` (stereo unspecified) | -32.76 | - | - |
| 13 | `CS(=O)(=O)N1Cc2ccccc2CC2(CCN(Cc3ccncc3)C2)C1` (stereo unspecified) | -17 | 16.57 | - |
| 14 | `CN(Cc1ccncc1)C1COC2(CCN(Cc3cccs3)CC2)C1.O=C(O)C(F)(F)F.O=C(O)C(F)(F)F.O=C(O)C(F)(F)F` (stereo unspecified) | 10.37 | - | 30.98 |
| 15 | `CCOC(C(=O)N1CCn2c(CC)nnc2C1)c1ccccc1` (stereo unspecified) | 0.4946 | 4.57 | 4.626 |
| 16 | `CNC(=O)c1cccc(C2CNCCN2C(=O)c2ccn(C)n2)c1` (stereo unspecified) | 6.753 | 2.825 | -4.061 |
| 17 | `COc1ccc(Cn2nc(C(N)=O)ccc2=O)c(Cl)c1` | -13.63 | 9.192 | - |
| 18 | `CC(C)=CCN1C(=O)[C@H]2CC[C@@H]1CN(c1ncccc1C(N)=O)C2` | - | 8.908 | - |
| 19 | `COCCNC(=O)c1ccc(NCc2csc(C)n2)cc1Cl` | -9.533 | 9.162 | 5.85 |
| 20 | `Cc1cnc(N(C)Cc2cnc3ccccc3n2)nc1N(C)C` | -13.2 | 17.51 | 49.08 |
| 21 | `Cc1nc(CN2CCCN(C(=O)COCC3CC3)CC2)cs1` | 36.12 | 10.44 | -6.838 |
| 22 | `CCN(CC1CCOC1)C(=O)NCc1nnc2n1CCCCC2` (stereo unspecified) | -10.03 | 18.62 | -70.97 |
| 23 | `CN(Cc1ccccn1)C1CC2(CCN(Cc3ccccn3)CC2)C1.O=C(O)C(F)(F)F.O=C(O)C(F)(F)F` | 3.629 | - | -13.37 |
| 24 | `CC(C)(C)c1noc(CCC(=O)NCC2CCS(=O)(=O)C2)n1` (stereo unspecified) | 12.43 | 19.88 | - |
| 25 | `CC(C)Cc1cc(C(=O)NCCc2ccc(S(C)(=O)=O)cc2)[nH]n1` | 4.803 | 17.61 | 1.446 |
| 26 | `O=C(NC1CCN(c2cc(-n3ccnc3)ncn2)CC1)c1ccncc1` | -2.134 | 12.15 | 4.731 |
| 27 | `Cc1cccc(OCC(=O)N(Cc2ccncc2)C2CC2)c1` | -5.75 | 9.253 | 29.64 |
| 28 | `COCc1n[nH]c2c1CN(Cc1ccccn1)C2` | - | 17.93 | - |
| 29 | `CC(C)c1noc(CN2CCN(C(=O)c3ccc(F)cc3)CC2)n1` | -12.62 | 5.556 | -16.05 |
| 30 | `CN(c1ccc(C(=O)NCCN2CCOCC2)c(Cl)c1)S(C)(=O)=O` | 6.353 | 7.357 | 13.12 |
| 31 | `O=C(CC1CC1)N1CC[C@H]2[C@@H]1CCC(=O)N2c1cccnc1` | - | 12.46 | - |
| 32 | `OC1(CNc2ccc(Br)cn2)CCOCC1` | 6.944 | 12.33 | - |
| 33 | `CN1CCN(c2nsc(-c3cccnc3)c2C#N)CC1` | -23.67 | 3.655 | -23.91 |
| 34 | `Cn1cccc1C(=O)N1CCC2(CCCN2Cc2ccccc2)CC1` | - | 3.268 | - |
| 35 | `CC(C)N1CCC2(CCNCC2)C1=O` | - | 8.403 | - |
| 36 | `O=C(CN(CC(O)c1ccc(F)cc1)C1CC1)NC(C1CC1)C1CC1` (stereo unspecified) | -21.8 | 22.16 | 0.3446 |
| 37 | `COC(=O)NCC(=O)N1CCCCC1c1nc2cc(F)ccc2[nH]1` (stereo unspecified) | 0.6559 | 12.27 | - |
| 38 | `O=C(c1cscn1)N1CCC2(CCN(Cc3nccs3)C2)CC1` | -12.88 | 7.744 | 7.321 |
| 39 | `CCOc1cc(C)nc(N2CCN(Cc3nccn3C)CC2)n1` | -8.491 | 16.81 | 23.41 |
| 40 | `CN(C)C(=O)CN1CCN(C(=O)C2CSc3ccccc3O2)CC1` (stereo unspecified) | -13.75 | 11.56 | -14.27 |
| 41 | `CC(C)[C@@H](N)C(=O)NCc1cccnc1N1CCc2ccccc2C1` | -6.6 | 11.19 | -7.356 |
| 42 | `Cc1nc(CCNC(=O)C2CCN(C(C)C)CC2)sc1Cl` | 5.343 | 17.13 | 13.09 |
| 43 | `COc1ccccc1OCCn1c(C)c(C)oc1=O` | 0.8916 | 6.875 | - |
| 44 | `O=C(CNC(=O)C1CC1)NCC1CCCC1` | 36.59 | 4.348 | 20.41 |

Data taken from ChEMBL document CHEMBL3988442, “University of Dundee, Small-Polar-MMV Screening Library” (2021).